No constants are given. Whether binding was seen depends on the method and setting. Some binding calls cover weakened binding; strength is not graded here.

Chains of the proteins cited; added tags and fusions are not shown. Lines headed by an entry give the natural chain unless they say otherwise; changes in a name come on top.
UniProt P09038: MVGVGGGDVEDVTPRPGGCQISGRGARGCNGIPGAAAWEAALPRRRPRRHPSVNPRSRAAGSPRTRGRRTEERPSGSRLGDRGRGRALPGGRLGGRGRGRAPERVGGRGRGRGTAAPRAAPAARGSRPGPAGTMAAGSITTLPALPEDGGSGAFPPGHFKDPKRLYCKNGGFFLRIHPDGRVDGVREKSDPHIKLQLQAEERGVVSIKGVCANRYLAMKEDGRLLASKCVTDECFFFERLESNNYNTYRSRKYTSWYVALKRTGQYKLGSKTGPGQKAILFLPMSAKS

Assay [1] addresses Jagged1-Fc fusion protein (commercial, R&D Systems; as used in native gel electrophoresis) (human). Put plainly: native agarose gel electrophoresis (FIG. 6A).
Assay [2] shares this target. Description: native isoelectric focusing gel (FIG. 6A).

On to “recombinant human FGF2 (low molecular weight isoform, 18 kDa) (from UniProt P09038 143-288) (ligand)”, for which the binding entry in assay [1] and in assay [2] was “binds” each time.
